Source: the supplement of paper PMC10849652
The list shows a part of the results.

Sequences of proteins named here, by UniProt entry; tags and fusion partners are left off. A change or cut given only in a name is not applied to a line headed by its entry.
UniProt Q96DG6: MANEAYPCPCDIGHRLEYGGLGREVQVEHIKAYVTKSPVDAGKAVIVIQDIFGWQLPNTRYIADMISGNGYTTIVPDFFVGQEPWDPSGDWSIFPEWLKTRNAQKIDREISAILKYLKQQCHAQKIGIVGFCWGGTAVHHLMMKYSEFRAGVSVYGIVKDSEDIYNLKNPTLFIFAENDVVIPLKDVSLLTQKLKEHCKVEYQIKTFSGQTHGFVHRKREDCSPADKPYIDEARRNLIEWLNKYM
UniProt Q9H6Q4: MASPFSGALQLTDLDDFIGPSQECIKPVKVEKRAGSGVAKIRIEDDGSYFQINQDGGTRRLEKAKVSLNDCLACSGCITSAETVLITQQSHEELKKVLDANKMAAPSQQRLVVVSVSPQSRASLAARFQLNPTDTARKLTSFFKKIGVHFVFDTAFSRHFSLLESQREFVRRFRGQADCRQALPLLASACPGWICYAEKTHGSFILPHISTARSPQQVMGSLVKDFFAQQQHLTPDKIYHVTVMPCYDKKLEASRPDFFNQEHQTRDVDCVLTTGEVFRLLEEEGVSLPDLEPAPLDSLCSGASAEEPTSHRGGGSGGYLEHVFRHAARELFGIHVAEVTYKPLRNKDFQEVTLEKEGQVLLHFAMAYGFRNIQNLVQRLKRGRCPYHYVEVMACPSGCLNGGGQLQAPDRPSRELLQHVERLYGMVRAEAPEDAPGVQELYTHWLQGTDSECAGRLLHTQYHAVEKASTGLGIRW
UniProt Q8WUX9: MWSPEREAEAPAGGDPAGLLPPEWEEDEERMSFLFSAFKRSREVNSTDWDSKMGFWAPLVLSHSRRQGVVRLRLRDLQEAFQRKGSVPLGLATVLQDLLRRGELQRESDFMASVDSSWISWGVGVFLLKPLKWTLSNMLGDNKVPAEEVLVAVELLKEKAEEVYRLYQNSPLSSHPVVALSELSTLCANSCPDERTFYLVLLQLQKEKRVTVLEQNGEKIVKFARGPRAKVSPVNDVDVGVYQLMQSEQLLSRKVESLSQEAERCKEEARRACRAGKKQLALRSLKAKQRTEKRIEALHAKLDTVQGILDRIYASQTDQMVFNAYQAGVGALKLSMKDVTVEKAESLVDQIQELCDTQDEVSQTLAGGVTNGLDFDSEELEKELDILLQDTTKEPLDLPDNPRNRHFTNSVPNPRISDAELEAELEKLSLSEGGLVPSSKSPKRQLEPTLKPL
UniProt Q6PJW8: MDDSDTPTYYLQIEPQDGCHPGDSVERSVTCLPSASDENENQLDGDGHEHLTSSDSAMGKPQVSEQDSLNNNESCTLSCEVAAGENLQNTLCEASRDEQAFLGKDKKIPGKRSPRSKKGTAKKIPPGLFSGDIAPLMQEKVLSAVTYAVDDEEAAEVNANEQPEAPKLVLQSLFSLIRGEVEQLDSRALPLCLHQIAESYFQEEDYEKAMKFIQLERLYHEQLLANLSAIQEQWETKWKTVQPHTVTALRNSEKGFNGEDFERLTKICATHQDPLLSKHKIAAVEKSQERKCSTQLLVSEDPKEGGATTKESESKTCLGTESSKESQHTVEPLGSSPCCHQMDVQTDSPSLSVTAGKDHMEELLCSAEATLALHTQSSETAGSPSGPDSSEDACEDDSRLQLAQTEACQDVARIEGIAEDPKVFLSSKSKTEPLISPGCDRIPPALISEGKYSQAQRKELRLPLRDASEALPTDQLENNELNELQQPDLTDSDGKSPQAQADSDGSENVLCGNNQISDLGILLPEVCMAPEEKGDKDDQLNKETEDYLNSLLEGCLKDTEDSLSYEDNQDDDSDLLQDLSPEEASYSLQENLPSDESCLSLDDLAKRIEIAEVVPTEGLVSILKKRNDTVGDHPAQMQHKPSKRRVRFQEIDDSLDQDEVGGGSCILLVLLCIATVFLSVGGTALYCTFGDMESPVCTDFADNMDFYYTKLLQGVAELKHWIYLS
UniProt Q8WUH1: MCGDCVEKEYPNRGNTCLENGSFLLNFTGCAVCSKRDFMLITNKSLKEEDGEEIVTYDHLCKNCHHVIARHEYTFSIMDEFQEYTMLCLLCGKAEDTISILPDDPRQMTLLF
UniProt Q9Y2R0: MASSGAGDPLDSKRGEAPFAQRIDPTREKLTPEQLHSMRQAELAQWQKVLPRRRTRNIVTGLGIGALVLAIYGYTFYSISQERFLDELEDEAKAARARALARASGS
UniProt P06732: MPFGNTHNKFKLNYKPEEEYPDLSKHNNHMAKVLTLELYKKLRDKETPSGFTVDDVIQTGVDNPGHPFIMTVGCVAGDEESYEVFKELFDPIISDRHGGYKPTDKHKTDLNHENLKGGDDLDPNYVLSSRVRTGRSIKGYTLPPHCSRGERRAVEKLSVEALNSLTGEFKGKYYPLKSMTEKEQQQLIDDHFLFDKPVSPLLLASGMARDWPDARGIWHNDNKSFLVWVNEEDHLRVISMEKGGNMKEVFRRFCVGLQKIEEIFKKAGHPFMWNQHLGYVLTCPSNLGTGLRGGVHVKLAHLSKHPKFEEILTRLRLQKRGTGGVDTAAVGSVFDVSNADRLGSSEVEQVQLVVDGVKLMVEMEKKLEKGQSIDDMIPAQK
UniProt Q9BT09: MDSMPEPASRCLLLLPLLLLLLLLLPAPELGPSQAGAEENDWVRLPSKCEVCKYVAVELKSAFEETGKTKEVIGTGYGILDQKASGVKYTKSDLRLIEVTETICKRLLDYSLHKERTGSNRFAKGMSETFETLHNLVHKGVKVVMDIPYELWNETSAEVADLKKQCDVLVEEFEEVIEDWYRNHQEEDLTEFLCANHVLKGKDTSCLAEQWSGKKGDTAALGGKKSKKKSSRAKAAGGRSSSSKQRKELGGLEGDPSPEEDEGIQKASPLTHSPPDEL
UniProt Q9H5X1: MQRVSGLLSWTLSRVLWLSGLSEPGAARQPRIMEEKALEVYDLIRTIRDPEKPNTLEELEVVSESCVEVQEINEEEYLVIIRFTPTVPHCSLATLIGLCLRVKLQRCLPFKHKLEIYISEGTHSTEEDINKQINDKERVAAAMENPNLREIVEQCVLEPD
UniProt Q8N3C7: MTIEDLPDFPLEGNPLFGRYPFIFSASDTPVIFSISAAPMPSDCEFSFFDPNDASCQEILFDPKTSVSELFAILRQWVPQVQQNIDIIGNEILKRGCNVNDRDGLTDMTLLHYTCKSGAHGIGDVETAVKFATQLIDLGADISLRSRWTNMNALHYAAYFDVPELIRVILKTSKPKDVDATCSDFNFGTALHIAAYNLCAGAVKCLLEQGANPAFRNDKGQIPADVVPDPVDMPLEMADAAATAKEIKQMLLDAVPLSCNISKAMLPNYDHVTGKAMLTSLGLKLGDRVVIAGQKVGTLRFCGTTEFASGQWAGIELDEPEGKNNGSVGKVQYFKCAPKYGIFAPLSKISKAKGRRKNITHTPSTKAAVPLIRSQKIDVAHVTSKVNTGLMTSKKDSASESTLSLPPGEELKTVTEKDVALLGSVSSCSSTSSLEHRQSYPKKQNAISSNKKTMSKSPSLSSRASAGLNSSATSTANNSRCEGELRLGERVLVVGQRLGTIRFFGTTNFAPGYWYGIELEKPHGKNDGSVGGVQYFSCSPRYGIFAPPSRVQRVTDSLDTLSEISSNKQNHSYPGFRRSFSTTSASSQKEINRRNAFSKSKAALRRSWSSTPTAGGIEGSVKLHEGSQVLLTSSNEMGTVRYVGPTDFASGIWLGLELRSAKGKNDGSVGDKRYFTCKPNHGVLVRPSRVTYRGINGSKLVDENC
UniProt O96005: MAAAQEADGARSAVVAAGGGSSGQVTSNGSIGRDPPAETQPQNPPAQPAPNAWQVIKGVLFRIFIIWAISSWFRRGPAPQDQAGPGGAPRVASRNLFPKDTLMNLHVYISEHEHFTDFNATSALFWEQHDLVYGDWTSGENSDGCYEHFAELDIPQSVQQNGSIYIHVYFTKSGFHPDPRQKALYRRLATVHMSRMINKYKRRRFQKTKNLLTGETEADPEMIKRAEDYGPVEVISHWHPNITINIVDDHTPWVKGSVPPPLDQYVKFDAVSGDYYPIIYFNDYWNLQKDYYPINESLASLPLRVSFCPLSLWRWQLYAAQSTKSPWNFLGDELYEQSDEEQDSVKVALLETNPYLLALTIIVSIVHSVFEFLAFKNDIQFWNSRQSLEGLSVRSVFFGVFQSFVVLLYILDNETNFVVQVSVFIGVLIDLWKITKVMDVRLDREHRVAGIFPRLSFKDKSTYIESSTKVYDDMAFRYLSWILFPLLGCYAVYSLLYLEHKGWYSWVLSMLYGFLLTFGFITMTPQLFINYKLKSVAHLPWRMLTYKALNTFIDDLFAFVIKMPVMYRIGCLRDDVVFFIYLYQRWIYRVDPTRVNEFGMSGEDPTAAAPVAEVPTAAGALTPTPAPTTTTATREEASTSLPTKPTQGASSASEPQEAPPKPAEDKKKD
UniProt P62633: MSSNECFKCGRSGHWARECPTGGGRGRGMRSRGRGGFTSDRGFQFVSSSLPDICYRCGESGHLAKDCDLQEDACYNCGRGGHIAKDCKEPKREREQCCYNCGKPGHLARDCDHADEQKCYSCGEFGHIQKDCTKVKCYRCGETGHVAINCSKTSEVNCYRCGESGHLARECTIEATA
UniProt Q00610: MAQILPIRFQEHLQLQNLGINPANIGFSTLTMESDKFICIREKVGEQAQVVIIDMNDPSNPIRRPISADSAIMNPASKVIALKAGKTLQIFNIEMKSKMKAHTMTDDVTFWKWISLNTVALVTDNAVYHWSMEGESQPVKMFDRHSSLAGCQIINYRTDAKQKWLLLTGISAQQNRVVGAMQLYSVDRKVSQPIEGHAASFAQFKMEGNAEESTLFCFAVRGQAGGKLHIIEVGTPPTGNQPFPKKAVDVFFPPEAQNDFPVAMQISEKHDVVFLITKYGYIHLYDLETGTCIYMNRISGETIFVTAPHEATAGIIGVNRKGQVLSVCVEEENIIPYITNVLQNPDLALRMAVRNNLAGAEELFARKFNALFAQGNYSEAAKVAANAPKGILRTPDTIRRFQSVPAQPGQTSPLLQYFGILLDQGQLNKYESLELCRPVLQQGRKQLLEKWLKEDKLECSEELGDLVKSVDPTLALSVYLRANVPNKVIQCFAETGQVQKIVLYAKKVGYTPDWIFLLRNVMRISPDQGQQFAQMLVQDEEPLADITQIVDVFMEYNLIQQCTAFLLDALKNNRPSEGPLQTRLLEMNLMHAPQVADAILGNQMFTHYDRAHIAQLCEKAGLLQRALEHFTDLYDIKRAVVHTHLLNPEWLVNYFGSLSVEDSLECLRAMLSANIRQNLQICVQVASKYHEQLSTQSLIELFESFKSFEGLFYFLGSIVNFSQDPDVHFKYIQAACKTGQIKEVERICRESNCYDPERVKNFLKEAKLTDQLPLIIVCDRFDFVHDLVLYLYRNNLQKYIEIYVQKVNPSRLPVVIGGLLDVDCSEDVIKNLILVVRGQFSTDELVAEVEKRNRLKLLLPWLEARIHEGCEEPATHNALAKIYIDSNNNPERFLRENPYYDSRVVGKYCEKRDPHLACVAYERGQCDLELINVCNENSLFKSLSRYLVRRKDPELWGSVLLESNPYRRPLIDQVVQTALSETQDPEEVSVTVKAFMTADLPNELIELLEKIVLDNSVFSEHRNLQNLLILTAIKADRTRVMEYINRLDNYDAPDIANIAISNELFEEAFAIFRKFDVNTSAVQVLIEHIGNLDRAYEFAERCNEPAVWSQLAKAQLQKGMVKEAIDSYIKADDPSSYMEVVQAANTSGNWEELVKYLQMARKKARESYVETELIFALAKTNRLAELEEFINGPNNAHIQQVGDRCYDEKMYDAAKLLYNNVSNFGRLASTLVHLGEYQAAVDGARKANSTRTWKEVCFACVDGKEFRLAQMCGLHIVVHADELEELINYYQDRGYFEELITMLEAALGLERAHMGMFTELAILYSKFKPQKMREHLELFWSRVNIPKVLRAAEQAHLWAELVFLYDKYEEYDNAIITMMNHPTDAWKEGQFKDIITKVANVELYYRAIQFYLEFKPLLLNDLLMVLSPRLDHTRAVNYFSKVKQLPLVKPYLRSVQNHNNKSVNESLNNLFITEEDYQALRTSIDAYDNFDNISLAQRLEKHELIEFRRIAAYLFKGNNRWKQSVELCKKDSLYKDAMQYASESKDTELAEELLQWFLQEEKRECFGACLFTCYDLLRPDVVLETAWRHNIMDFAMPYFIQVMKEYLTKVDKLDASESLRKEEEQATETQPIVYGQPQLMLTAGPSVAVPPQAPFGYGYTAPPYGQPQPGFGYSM
UniProt Q14011: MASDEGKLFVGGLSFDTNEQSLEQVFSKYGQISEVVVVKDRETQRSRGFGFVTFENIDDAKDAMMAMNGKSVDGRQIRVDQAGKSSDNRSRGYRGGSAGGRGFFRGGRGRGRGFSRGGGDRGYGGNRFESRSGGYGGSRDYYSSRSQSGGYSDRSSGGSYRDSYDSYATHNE

Columns and labels:
Test in all cases: log2 fold change, soluble protein after heating vs DMSO (PISA); higher = thermal stabilisation; K562 cells, 10 uM, 30 min; active = over 0.2 and 3.5 SD of the protein, either way, in both replicates (recomputed)
[1] = compound: CS(=O)(=O)c1ccc(-c2cnc(N)c(C(=O)Nc3ccccc3)n2)cc1
In short: (§1)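 Quantification of soluble protein used TMTpro 16plex LC-MS/MS, with channel sums equalised. Samples were the supernatant after 21,000xg for 90 min of pooled aliquots from K562 cells (2×10^6 cells/mL) treated with 10 μM compound for 30 min, heated for 3 min over 48°C-58°C, and extracted in PBS with 0.5% NP-40 at 4°C. Values, from duplicates, describe thermal stability against control samples on a log2 fold-change scale.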

[2] = compound: C[C@@H](Oc1cc(-c2cnn(C3CCNCC3)c2)cnc1N)c1c(Cl)ccc(F)c1Cl [crizotinib]
In short: as §1

[3] = compound: C[C@@H]1COCCN1C2=NC(=NC(=C2)C3(CC3)S(=O)(=O)C)C4=C5C=CNC5=CC=C4
In short: as §1

[4] = compound: C[C@H](C1=CC=C(C=C1)C(=O)NC2=C3C=CNC3=NC=C2)N
In short: as §1

[5] = compound: C[C@H](Nc1ncnc2nc[nH]c12)c1cc2cccc(Cl)c2c(=O)n1-c1ccccc1 [duvelisib]
In short: as §1

[6] = compound: Cc1cc(Nc2cc(CN3CCOCC3)c3nc(C)c(Cc4ccc(Cl)cc4F)n3n2)n[nH]1 [gandotinib]
In short: as §1

[7] = compound: Cc1cc(Nc2cc(N3CCN(C)CC3)nc(Sc3ccc(NC(=O)C4CC4)cc3)n2)n[nH]1 [tozasertib]
In short: as §1

[8] = compound: Cc1cc(SCc2sc(-c3ccc(C(F)(F)F)cc3)nc2C)ccc1OCC(=O)O
In short: as §1

[9] = compound: Cc1ccc(-n2nc(C(C)(C)C)cc2NC(=O)Nc2ccc(OCCN3CCOCC3)c3ccccc23)cc1 [doramapimod]
In short: as §1

[10] = compound: Cc1ccc(C(=O)N(CCCN)[C@@H](c2nc3cc(Cl)ccc3c(=O)n2Cc2ccccc2)C(C)C)cc1 [ispinesib]
In short: as §1

[11] = compound: Cc1ccc(NC(=O)c2ccc(CN3CC[C@H](N(C)C)C3)c(C(F)(F)F)c2)cc1Nc1nccc(-c2cncnc2)n1 [bafetinib]
In short: as §1

[12] = compound: Cc1cccc(CC(=O)N2CCc3c2ccc(-c2cn(C)c4ncnc(N)c24)c3F)n1
In short: as §1

[13] = compound: Cc1cn(-c2cc(NC(=O)c3ccc(C)c(Nc4nccc(-c5cccnc5)n4)c3)cc(C(F)(F)F)c2)cn1 [nilotinib]
In short: as §1

[14] = compound: Cc1nc(Nc2n[nH]c3c2CN(C(=O)N[C@H](CN(C)C)c2ccccc2)C3(C)C)c2sccc2n1
In short: as §1

[15] = compound: Cc1nc(Nc2ncc(C(=O)Nc3c(C)cccc3Cl)s2)cc(N2CCN(CCO)CC2)n1 [dasatinib]
In short: as §1

[16] = compound: Cc1ncc(-c2ccnc(Nc3ccc(S(C)(=O)=O)cc3)n2)n1C(C)C
In short: as §1

[17] = compound: Cn1cc(-c2ccc3c(c2)CCN3C(=O)Cc2cccc(C(F)(F)F)c2)c2c(N)ncnc21
In short: as §1

[18] = compound: Cn1cc(-c2ccc3nnc(C(F)(F)c4ccc5ncccc5c4)n3n2)cn1
In short: as §1

[19] = compound: Cn1cncc1[C@@](N)(c1ccc(Cl)cc1)c1ccc2c(c1)c(-c1cccc(Cl)c1)cc(=O)n2C [tipifarnib]
In short: as §1

[20] = compound: FC(F)(F)c1ccc(/C=C/c2nc(COc3ccc(CCCCn4ccnn4)cc3)co2)cc1 [mubritinib]
In short: as §1

Measured: log2 fold change

CMBL (UniProt Q96DG6)
inactive: [1] 0.07 | [2] 0.108 | [3] 0.011 | [4] -0.06 | [5] 0.024 | [6] 0.008 | [7] -0.024 | [8] -0.04 | [9] -0.062 | [10] 0.032 | [11] -0.021 | [12] -0.093 | [13] 0.021 | [14] 0.066 | [15] 0.13 | [16] -0.008 | [17] -0.048 | [18] 0.04 | [19] 0 | [20] -0.015

CIAO3 (UniProt Q9H6Q4)
inactive: [1] 0.058 | [2] -0.02 | [3] 0.078 | [4] 0.011 | [5] 0.109 | [6] -0.067 | [7] -0.001 | [8] 0.01 | [9] 0 | [10] 0.013 | [11] -0.059 | [12] 0.018 | [13] -0.041 | [14] -0.024 | [15] -0.126 | [16] 0.004 | [17] 0.082 | [18] 0.034 | [19] -0.069 | [20] 0

CHMP7 (UniProt Q8WUX9)
inactive: [1] 0.038 | [2] -0.259 | [3] 0.042 | [4] 0.044 | [5] 0.036 | [6] -0.046 | [7] 0.13 | [8] 0.22 | [9] -0.038 | [10] -0.193 | [11] -0.074 | [12] 0.01 | [13] 0.071 | [14] -0.095 | [15] -0.272 | [16] 0.09 | [17] -0.111 | [18] -0.01 | [19] -0.164 | [20] 0.193

CNST (UniProt Q6PJW8)
inactive: [1] -0.021 | [2] 0.055 | [3] 0.048 | [4] -0.024 | [5] 0.03 | [6] -0.046 | [7] -0.022 | [8] -0.023 | [9] 0.01 | [10] 0.025 | [11] -0.05 | [12] -0.054 | [13] -0.008 | [14] -0.045 | [15] -0.045 | [16] -0.005 | [17] 0.041 | [18] 0.008 | [19] 0.044 | [20] 0.062

CHURC1 isoform 2 (UniProt Q8WUH1)
inactive: [1] -0.041 | [2] 0.108 | [3] -0.029 | [4] -0.055 | [5] -0.003 | [6] 0.065 | [7] 0.028 | [8] 0.014 | [9] -0.201 | [10] -0.077 | [11] -0.093 | [12] -0.037 | [13] -0.015 | [14] -0.04 | [15] 0 | [16] 0.066 | [17] -0.073 | [18] 0.034 | [19] -0.049 | [20] 0.008

COA3 (UniProt Q9Y2R0)
inactive: [1] -0.008 | [2] 0.117 | [3] 0.009 | [4] -0.045 | [5] 0.015 | [6] 0.031 | [7] 0.023 | [8] -0.059 | [9] 0.004 | [10] 0.023 | [11] -0.084 | [12] -0.046 | [13] 0.025 | [14] -0.077 | [15] 0.087 | [16] -0.01 | [17] 0.013 | [18] 0.05 | [19] 0.046 | [20] 0.045

CKM (UniProt P06732)
inactive: [1] 0.039 | [2] -0.225 | [3] 0.017 | [4] -0.129 | [5] -0.016 | [6] -0.099 | [7] -0.046 | [8] -0.047 | [9] -0.011 | [10] 0.006 | [11] 0.093 | [12] 0.059 | [13] -0.011 | [14] 0.001 | [15] -0.083 | [16] 0.013 | [17] 0.061 | [18] -0.116 | [19] -0.01 | [20] 0.063

Quoted from the listing (4 entries):
CIAO3 (UniProt Q9H6Q4)
inactive: [1] 0.058 | [2] -0.02 | [3] 0.078 | [4] 0.011 | [5] 0.109 | [6] -0.067 | [7] -0.001 | [8] 0.01 | [9] 0 | [10] 0.013 | [11] -0.059 | [12] 0.018 | [13] -0.041 | [14] -0.024 | [15] -0.126 | [16] 0.004 | [17] 0.082 | [18] 0.034 | [19] -0.069 | [20] 0

CHMP7 (UniProt Q8WUX9)
inactive: [1] 0.038 | [2] -0.259 | [3] 0.042 | [4] 0.044 | [5] 0.036 | [6] -0.046 | [7] 0.13 | [8] 0.22 | [9] -0.038 | [10] -0.193 | [11] -0.074 | [12] 0.01 | [13] 0.071 | [14] -0.095 | [15] -0.272 | [16] 0.09 | [17] -0.111 | [18] -0.01 | [19] -0.164 | [20] 0.193

CNST (UniProt Q6PJW8)
inactive: [1] -0.021 | [2] 0.055 | [3] 0.048 | [4] -0.024 | [5] 0.03 | [6] -0.046 | [7] -0.022 | [8] -0.023 | [9] 0.01 | [10] 0.025 | [11] -0.05 | [12] -0.054 | [13] -0.008 | [14] -0.045 | [15] -0.045 | [16] -0.005 | [17] 0.041 | [18] 0.008 | [19] 0.044 | [20] 0.062

CHURC1 isoform 2 (UniProt Q8WUH1)
inactive: [1] -0.041 | [2] 0.108 | [3] -0.029 | [4] -0.055 | [5] -0.003 | [6] 0.065 | [7] 0.028 | [8] 0.014 | [9] -0.201 | [10] -0.077 | [11] -0.093 | [12] -0.037 | [13] -0.015 | [14] -0.04 | [15] 0 | [16] 0.066 | [17] -0.073 | [18] 0.034 | [19] -0.049 | [20] 0.008

(cont.)

CMAS (UniProt Q8NFW8)
inactive: [1] -0.046 | [2] -0.041 | [3] -0.173 | [4] 0.252 | [5] -0.027 | [6] 0.045 | [7] -0.014 | [8] 0.029 | [9] 0.072 | [10] -0.178 | [11] 0.072 | [12] -0.024 | [13] -0.028 | [14] 0.041 | [15] 0.026 | [16] -0.005 | [17] -0.074 | [18] -0.134 | [19] 0.041 | [20] -0.084

CNPY3 (UniProt Q9BT09)
inactive: [1] 0.007 | [2] 0.081 | [3] 0.015 | [4] 0.024 | [5] 0.089 | [6] -0.013 | [7] -0.028 | [8] -0.049 | [9] -0.015 | [10] 0.014 | [11] -0.076 | [12] -0.072 | [13] -0.013 | [14] 0.016 | [15] 0.01 | [16] -0.047 | [17] 0.021 | [18] 0.015 | [19] 0.002 | [20] 0.002

CIAO2A (UniProt Q9H5X1)
inactive: [1] -0.025 | [2] -0.015 | [3] -0.024 | [4] -0.059 | [5] 0.099 | [6] -0.127 | [7] -0.022 | [8] 0.01 | [9] -0.009 | [10] -0.104 | [11] -0.002 | [12] -0.023 | [13] -0.055 | [14] 0.051 | [15] -0.061 | [16] -0.02 | [17] 0.033 | [18] 0.006 | [19] 0.026 | [20] 0.062

CLIP4 (UniProt Q8N3C7)
inactive: [1] 0.032 | [2] 0.131 | [3] 0.057 | [4] -0.029 | [5] 0.338 | [6] -0.031 | [7] -0.058 | [8] -0.009 | [9] -0.066 | [10] 0.029 | [11] -0.04 | [12] -0.014 | [13] -0.025 | [14] 0.072 | [15] 0.101 | [16] 0.071 | [17] 0.078 | [18] 0.255 | [19] 0.104 | [20] -0.25

CLPTM1 (UniProt O96005)
inactive: [1] 0.015 | [2] -0.036 | [3] -0.048 | [4] 0.071 | [5] 0.003 | [6] -0.032 | [7] 0.025 | [8] 0.019 | [9] 0.02 | [10] -0.16 | [11] -0.004 | [12] 0.011 | [13] -0.007 | [14] 0.048 | [15] 0.006 | [16] -0.032 | [17] -0.02 | [18] 0.031 | [19] 0.04 | [20] -0.062

CNBP isoform 6 (UniProt P62633)
inactive: [1] -0.008 | [2] 0.008 | [3] -0.119 | [4] -0.018 | [5] -0.049 | [6] 0.109 | [7] 0 | [8] -0.08 | [9] -0.018 | [10] -0.004 | [11] -0.019 | [12] -0.08 | [13] 0.003 | [14] 0.027 | [15] 0.118 | [16] 0.021 | [17] -0.088 | [18] 0.038 | [19] 0.087 | [20] -0.006

CNNM3 (UniProt Q8NE01)
inactive: [1] 0.153 | [2] 0.061 | [3] 0.047 | [4] -0.069 | [5] 0.047 | [6] -0.046 | [7] -0.001 | [8] 0.019 | [9] 0.01 | [10] 0.045 | [11] -0.045 | [12] -0.064 | [13] 0.006 | [14] -0.008 | [15] -0.027 | [16] 0.104 | [17] 0.041 | [18] 0.031 | [19] -0.045 | [20] 0.073

CLTC (UniProt Q00610)
inactive: [1] 0.029 | [2] 0.014 | [3] -0.08 | [4] 0.096 | [5] -0.041 | [6] -0.038 | [7] 0.03 | [8] -0.011 | [9] 0.007 | [10] 0.023 | [11] 0.189 | [12] -0.015 | [13] 0.086 | [14] 0.086 | [15] 0.158 | [16] 0.089 | [17] -0.098 | [18] -0.076 | [19] -0.104 | [20] -0.018

CIRBP isoform 2 (UniProt Q14011)
inactive: [1] -0.052 | [2] -0.004 | [3] -0.255 | [4] 0.15 | [5] -0.141 | [6] 0.248 | [7] 0.007 | [8] 0.014 | [9] 0.028 | [10] -0.041 | [11] 0.098 | [12] -0.076 | [13] -0.036 | [14] 0.136 | [15] 0.088 | [16] 0.06 | [17] -0.263 | [18] -0.142 | [19] 0.068 | [20] -0.148
